PubChem BioAssay AID1224830 – NIAID – 2016
Screen: 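Genes whose knock-down alters the TNF-alpha reporter response to LPS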 (primary screen). Cells: human THP-1 monocytic leukaemia cells, TNF dual-luciferase reporter clone, PMA-differentiated to macrophage-like cells. Reagents: siRNA pool against human genes, 50 nM. Timing: LPS for 4 h, given about 3 days after siRNA transfection. Challenge: bacterial LPS (TLR4 ligand), 10 ng/ml. Measured: 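TNF firefly reporter luminescence divided by renilla, normalised to the plate median, then turned into a robust z-score for each replicate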. Direction: TNF reporter robust z-score: higher = stronger TNF reporter response to LPS. Hit rule: 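Each well counts as active if its z-score is over 2.8 or under -1.5; controls are left without a call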.
The whole screen tested about 18,000 reagents; below is a random part of them. About 2,900 of them (16%) count as active. 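Calls are made per well; low scores hint the gene aids the LPS response, high scores that it dampens it.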 Repeated entries: four replicate wells of each siRNA pool.

target gene | TNF reporter robust z-score | Call
UBOX5 | 1.63 | inactive
UBOX5 | 0.12 | inactive
UBOX5 | 2.64 | inactive
UBOX5 | -0.97 | inactive
CCDC85B | -1.45 | inactive
CCDC85B | -1.52 | active
CCDC85B | -1.55 | active
CCDC85B | -1.44 | inactive
MIX23 | -0.28 | inactive
MIX23 | -0.99 | inactive
MIX23 | -0.04 | inactive
MIX23 | -0.31 | inactive
LRRC10 | -0.06 | inactive
LRRC10 | 0.42 | inactive
LRRC10 | 0.43 | inactive
LRRC10 | 0.05 | inactive
MBD6 | -0.39 | inactive
MBD6 | 13.9 | active
MBD6 | -0.44 | inactive
MBD6 | -0.82 | inactive
PARVA | 2.83 | active
PARVA | -1.09 | inactive
PARVA | 0.19 | inactive
PARVA | 0.55 | inactive
DRC1 | 3.82 | active
DRC1 | 2.62 | inactive
DRC1 | 3.02 | active
DRC1 | 2.71 | inactive
RECK | -0.12 | inactive
RECK | 0.37 | inactive
RECK | 0 | inactive
RECK | 0.46 | inactive
CYP4A11 | 2.02 | inactive
CYP4A11 | 2.32 | inactive
CYP4A11 | -0.33 | inactive
CYP4A11 | 2.1 | inactive
DNTT | -1.28 | inactive
DNTT | -0.55 | inactive
DNTT | -1.15 | inactive
DNTT | 0.32 | inactive
IL11RA | 0.36 | inactive
IL11RA | 0.34 | inactive
IL11RA | 0.03 | inactive
IL11RA | 1.06 | inactive
OOEP | 0.11 | inactive
OOEP | 1.16 | inactive
OOEP | 1.25 | inactive
OOEP | -0.15 | inactive
NTF3 | 0.04 | inactive
NTF3 | 0.36 | inactive
NTF3 | 0.49 | inactive
NTF3 | -0.14 | inactive
CYP3A7 | 0.52 | inactive
CYP3A7 | 0.34 | inactive
CYP3A7 | -0.15 | inactive
CYP3A7 | 0.62 | inactive
SSU72 | 0.9 | inactive
SSU72 | -0.78 | inactive
SSU72 | -1.18 | inactive
SSU72 | -1.32 | inactive
NFE4 | 0.03 | inactive
NFE4 | -1.17 | inactive
NFE4 | -0.54 | inactive
NFE4 | -0.76 | inactive
PINK1 | -0.47 | inactive
PINK1 | -0.61 | inactive
PINK1 | -0.19 | inactive
PINK1 | -0.27 | inactive
ARSA | 0.85 | inactive
ARSA | 1.63 | inactive
ARSA | 1.61 | inactive
ARSA | 2.83 | active
NTRK1 | -1.49 | inactive
NTRK1 | 0.23 | inactive
NTRK1 | -1.08 | inactive
NTRK1 | 0.44 | inactive
BPIFB1 | -0.78 | inactive
BPIFB1 | -0.33 | inactive
BPIFB1 | -0.72 | inactive
BPIFB1 | -0.2 | inactive
EIF3M | 0.59 | inactive
EIF3M | 0.24 | inactive
EIF3M | -0.5 | inactive
EIF3M | -0.28 | inactive
GCNT2 | 2.11 | inactive
GCNT2 | -0.98 | inactive
GCNT2 | -1.5 | inactive
GCNT2 | -0.67 | inactive
H1-7 | 0.41 | inactive
H1-7 | 0.95 | inactive
H1-7 | -0.46 | inactive
H1-7 | 0.39 | inactive
EDDM3A | 1.09 | inactive
EDDM3A | 0.03 | inactive
EDDM3A | 0.2 | inactive
EDDM3A | 1 | inactive
PPFIA3 | 0.65 | inactive
PPFIA3 | 2.27 | inactive
PPFIA3 | 0.7 | inactive
PPFIA3 | 0.22 | inactive
DAZAP1 | -1.5 | inactive
DAZAP1 | -0.06 | inactive
DAZAP1 | -0.34 | inactive
DAZAP1 | -0.84 | inactive
SDF2 | 0.57 | inactive
SDF2 | 1.41 | inactive
SDF2 | 0.85 | inactive
SDF2 | 1.05 | inactive
DDX6 | -0.43 | inactive
DDX6 | -1.08 | inactive
DDX6 | -0.75 | inactive
DDX6 | -0.87 | inactive

Targets above whose gene name starts with L or l (4):
target gene | TNF reporter robust z-score | Call
LRRC10 | -0.06 | inactive
LRRC10 | 0.42 | inactive
LRRC10 | 0.43 | inactive
LRRC10 | 0.05 | inactive
